Values quoted from earlier work, collected in US11590205B2, “Methods for producing stable therapeutic glucagon formulations in aprotic polar solvents” (Xeris Pharmaceuticals, Inc., priority 2015, dated 2023).

Details: no formulation excipients, accelerated storage conditions (40° C., 75% RH)

SMILES: CN1C(=O)CN=C(c2ccccc2)c2cc(Cl)ccc21 [diazepam]
- duration of stability in DMSO and NMP: at least 6 months
